# PubChem BioAssay AID2662 (National Center for Advancing Translational Sciences (NCATS), 2010)
# Amino acid sequences for entries named in this document (tags omitted).
# UniProt Q03164, whole entry, looked up: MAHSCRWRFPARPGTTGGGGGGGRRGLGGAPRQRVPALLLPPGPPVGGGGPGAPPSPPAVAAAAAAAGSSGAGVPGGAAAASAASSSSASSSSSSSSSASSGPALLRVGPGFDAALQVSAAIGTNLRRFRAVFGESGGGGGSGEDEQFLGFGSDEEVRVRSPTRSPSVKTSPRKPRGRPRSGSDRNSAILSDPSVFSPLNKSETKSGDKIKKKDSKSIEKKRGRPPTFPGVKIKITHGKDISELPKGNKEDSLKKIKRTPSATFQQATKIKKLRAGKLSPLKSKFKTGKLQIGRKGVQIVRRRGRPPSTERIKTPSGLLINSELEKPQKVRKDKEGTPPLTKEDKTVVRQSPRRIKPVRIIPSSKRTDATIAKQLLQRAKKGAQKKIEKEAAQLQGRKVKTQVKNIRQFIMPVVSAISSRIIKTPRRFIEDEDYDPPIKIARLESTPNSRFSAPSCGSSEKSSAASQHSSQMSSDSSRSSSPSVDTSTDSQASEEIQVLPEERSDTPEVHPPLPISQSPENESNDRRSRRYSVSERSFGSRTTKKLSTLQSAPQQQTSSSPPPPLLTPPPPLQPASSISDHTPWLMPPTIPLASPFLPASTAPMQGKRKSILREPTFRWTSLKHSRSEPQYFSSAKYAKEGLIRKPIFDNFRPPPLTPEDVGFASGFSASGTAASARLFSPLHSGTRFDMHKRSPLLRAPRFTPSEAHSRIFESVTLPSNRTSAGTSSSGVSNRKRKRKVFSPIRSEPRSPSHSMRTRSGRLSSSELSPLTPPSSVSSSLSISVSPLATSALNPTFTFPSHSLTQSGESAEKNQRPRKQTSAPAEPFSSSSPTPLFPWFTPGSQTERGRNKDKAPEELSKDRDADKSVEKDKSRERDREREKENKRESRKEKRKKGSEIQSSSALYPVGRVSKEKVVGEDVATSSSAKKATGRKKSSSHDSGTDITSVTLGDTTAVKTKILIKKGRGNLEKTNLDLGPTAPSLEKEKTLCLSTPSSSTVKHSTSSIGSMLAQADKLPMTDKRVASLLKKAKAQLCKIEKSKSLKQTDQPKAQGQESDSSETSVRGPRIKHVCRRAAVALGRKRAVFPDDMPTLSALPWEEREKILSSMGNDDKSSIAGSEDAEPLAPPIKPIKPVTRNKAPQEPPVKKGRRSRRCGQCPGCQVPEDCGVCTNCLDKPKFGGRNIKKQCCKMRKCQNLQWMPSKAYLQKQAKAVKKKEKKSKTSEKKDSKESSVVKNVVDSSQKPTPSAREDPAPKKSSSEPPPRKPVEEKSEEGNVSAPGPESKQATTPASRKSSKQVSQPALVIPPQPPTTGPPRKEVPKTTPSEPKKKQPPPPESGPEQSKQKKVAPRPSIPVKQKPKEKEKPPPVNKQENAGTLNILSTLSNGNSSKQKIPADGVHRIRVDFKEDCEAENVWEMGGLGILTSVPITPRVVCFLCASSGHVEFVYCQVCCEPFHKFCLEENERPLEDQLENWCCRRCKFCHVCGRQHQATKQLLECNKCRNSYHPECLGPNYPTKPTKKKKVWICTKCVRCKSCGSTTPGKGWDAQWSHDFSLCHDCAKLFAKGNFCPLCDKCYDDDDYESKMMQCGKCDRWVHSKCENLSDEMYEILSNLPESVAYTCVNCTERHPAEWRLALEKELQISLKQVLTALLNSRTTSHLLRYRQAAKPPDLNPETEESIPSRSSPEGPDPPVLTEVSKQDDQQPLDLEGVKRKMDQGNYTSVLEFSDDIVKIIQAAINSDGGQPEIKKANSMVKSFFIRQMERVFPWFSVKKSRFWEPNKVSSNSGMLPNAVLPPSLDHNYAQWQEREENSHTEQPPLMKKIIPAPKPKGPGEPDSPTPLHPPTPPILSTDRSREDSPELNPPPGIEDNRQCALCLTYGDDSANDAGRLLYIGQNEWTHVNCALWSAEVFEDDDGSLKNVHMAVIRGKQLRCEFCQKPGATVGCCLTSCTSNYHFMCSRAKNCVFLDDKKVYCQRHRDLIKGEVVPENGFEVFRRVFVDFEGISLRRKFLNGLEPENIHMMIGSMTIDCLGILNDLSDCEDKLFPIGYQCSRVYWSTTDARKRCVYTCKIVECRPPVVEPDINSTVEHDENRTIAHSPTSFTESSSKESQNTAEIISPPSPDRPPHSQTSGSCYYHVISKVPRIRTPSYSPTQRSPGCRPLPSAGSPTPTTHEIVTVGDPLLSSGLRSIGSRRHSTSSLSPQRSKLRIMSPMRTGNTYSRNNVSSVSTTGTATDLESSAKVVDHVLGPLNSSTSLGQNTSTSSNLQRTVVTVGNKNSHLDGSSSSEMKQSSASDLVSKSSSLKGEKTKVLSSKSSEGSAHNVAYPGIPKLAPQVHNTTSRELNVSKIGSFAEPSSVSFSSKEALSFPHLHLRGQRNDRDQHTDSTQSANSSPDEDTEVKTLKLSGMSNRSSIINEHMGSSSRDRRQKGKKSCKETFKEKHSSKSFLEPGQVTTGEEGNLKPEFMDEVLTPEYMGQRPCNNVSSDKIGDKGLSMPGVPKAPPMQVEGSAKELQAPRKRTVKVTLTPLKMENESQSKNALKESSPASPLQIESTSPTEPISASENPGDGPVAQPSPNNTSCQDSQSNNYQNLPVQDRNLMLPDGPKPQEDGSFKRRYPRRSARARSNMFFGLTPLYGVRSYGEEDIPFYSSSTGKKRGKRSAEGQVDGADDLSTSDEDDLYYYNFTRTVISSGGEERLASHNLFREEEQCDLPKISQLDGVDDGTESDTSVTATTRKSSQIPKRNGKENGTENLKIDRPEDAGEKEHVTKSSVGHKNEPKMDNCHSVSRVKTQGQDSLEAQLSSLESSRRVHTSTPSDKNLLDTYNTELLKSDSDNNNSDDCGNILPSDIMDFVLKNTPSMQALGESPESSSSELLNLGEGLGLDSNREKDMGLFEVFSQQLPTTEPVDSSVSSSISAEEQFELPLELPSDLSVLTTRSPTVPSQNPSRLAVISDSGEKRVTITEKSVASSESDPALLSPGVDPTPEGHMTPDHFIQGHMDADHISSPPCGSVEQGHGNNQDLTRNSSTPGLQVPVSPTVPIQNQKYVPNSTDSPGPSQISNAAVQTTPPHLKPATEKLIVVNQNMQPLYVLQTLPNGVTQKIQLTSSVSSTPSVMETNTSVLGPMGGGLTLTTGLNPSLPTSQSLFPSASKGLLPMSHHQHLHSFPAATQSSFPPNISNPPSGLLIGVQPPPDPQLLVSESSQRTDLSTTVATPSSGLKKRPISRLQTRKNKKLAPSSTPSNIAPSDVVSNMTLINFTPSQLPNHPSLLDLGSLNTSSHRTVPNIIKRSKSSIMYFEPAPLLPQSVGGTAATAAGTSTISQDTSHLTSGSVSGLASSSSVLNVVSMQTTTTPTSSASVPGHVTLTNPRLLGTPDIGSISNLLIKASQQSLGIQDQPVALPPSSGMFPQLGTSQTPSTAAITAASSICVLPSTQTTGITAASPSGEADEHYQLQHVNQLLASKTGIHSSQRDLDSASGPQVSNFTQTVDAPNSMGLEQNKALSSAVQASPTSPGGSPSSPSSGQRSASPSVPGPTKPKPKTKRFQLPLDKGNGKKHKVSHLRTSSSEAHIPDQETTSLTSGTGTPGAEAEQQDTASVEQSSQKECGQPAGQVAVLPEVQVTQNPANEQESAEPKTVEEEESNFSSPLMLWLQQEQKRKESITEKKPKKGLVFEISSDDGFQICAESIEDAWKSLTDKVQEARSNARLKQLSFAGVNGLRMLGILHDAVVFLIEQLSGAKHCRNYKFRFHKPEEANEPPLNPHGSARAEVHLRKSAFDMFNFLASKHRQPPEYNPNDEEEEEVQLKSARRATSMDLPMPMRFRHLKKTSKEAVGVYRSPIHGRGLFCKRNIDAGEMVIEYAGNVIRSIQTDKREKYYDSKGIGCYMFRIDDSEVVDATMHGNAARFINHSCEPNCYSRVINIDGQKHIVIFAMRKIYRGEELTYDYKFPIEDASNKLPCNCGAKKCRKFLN
# Screen size: about 290,000 compounds; about 110 (0.038%) were called active. Inconclusive results, whose numbers are uncertain, are shown with a selection of clear calls. Calls come from the whole dose curve; as a rule, active = well fitted inhibition curve with a large enough effect in the polarisation, with a control signal flat (not every such curve was filed as active); inconclusive = small, poorly fitted or top-dose-only effect, or effect the other way, or a change in a side signal; inactive = no such curve, though single readings can be large or run the other way; the % refers to the polarisation. Potencies of inconclusive entries are doubtful fits and often do not repeat. “Side channel” marks fits to a control or component signal instead of the main read-out.
# Target: Histone-lysine N-methyltransferase 2A (Homo sapiens) (UniProt Q03164)
# Assay: qHTS Fluorescence Polarization Assay for Inhibitors of MLL CXXC domain - DNA interaction
# Conditions: MLL-CXXC / FITC-HOXA9 DNA fluorescence polarization; activity change, negative = inhibition: at 115 µM (top of the series)
# Method in brief: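 Purified MLL-CXXC (added from a 7 uM solution) was preincubated 5 min at ambient with pinned compounds in 50 mM Tris-HCl pH 7.5, 50 mM NaCl, 1 mM DTT, 0.05% BSA. Fluorescein-labeled HOX-A9 DNA (50 nM solution) followed, 30 min, then polarization read.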
# Potency is the fitted concentration of half-maximal effect.
Structure (SMILES),Potency,"activity change, negative = inhibition"
O=C1Nc2ccc([N+](=O)[O-])cc2OC1CCN1CCN(Cc2ccc3c(c2)OCO3)CC1 (stereo unspecified),"inconclusive: 31.6 µM [fluorescent, side channel, partial curve]",–
O=C(NCCCn1ccnc1)c1cccc(S(=O)(=O)N2CCCCCC2)c1,"inconclusive: 44.7 µM [inhibitor, single point]",–
NS(=O)(=O)c1ccc(NC(=O)COC(=O)C23CC4CC(CC(C4)C2)C3)cc1,"inconclusive: 11.2 µM [fluorescent, side channel, full curve, poor fit]",–
CCN(CC)S(=O)(=O)c1cccc(C(=O)N/N=C/c2cccc(O)c2O)c1,"inconclusive: 17.8 µM [fluorescent, side channel, partial curve, poor fit]",–
O=C(CNC(=O)[C@@H]1Cc2ccccc2CN1)NC1CCCCC1,–,inactive: -11.1%
N#Cc1c(N)sc(=S)c2c1CCN(Cc1ccccc1)C2,"inconclusive: 70.8 µM [quencher, side channel, single point]",–
Fc1ccc(-c2cc(-c3cccs3)cc(-c3ccccc3)n2)cc1,–,inactive: -18.7%
CC(=O)/C(=N\Nc1ccc(Cl)cc1)Sc1nnc(-c2ccccc2)n1-c1ccccc1,–,inactive: 9.66%
Cc1ccc(-c2nc(SCC(=O)Nc3cc(S(=O)(=O)N4CCCCC4)ccc3Cl)n[nH]2)cc1,–,inactive: -3.59%
COc1cccc(/C(O)=C/c2nc3ccc(C(=O)NCCc4ccc(Cl)cc4)cc3[nH]c2=O)c1,"inconclusive: 31.6 µM [fluorescent, side channel, partial curve]",–
COc1ccc(-c2cc(-c3ccccc3)nc(N3CCCC3)n2)cc1OC,–,inactive: 15.1%
CCN(C(=O)COC(=O)c1ccc(OCc2c(C)noc2C)cc1)c1ccccc1,–,inactive: -5.71%
CCOC(=O)N1CCC(NC(=O)c2cc3sccc3n2CC)CC1,–,inactive: 1.25%
COc1ccc(Nc2nccc(-c3cccc(N)c3)n2)cc1,"inconclusive: 14.1 µM [fluorescent, side channel, single point]",–
CCCc1nc2ccccc2c(C(=O)OCC(=O)Nc2ccc(S(=O)(=O)N3CCOCC3)cc2)c1CC,"inconclusive: 89.1 µM [fluorescent, side channel, single point]",–
C=CCn1c(=O)/c(=C/c2ccc(C)o2)s/c1=C(/C#N)C(=O)c1ccccc1,"inconclusive: 70.8 µM [fluorescent, side channel, single point]",–
COc1ccccc1N1C(C)=CC(=C(C#N)c2nc3ccccc3s2)C=C1C,"inconclusive: 28.2 µM [fluorescent, side channel, partial curve]",–
CCc1c(C)c(C#N)c2nc3ccccc3n2c1NCCOC,"inconclusive: 15.8 µM [quencher, side channel, single point]",–
CCOc1ccc(NC(=O)c2ccco2)c([N+](=O)[O-])c1,–,inactive: 18.9%
Cc1cc(C(=O)Nc2cc(C)n(Cc3ccc(Cl)cc3)n2)no1,"inconclusive: 35.5 µM [quencher, side channel, single point]",–
Cn1c(=O)c2c(-c3ccccc3)n(-n3cnnc3)cc2n(C)c1=O,"inconclusive: 35.5 µM [inhibitor, partial curve]",–

# Some of the entries so far, with bars between the fields.
Structure (SMILES) | Potency | activity change, negative = inhibition
O=C(NCCCn1ccnc1)c1cccc(S(=O)(=O)N2CCCCCC2)c1 | inconclusive: 44.7 µM [inhibitor, single point] | –
O=C(CNC(=O)[C@@H]1Cc2ccccc2CN1)NC1CCCCC1 | – | inactive: -11.1%
N#Cc1c(N)sc(=S)c2c1CCN(Cc1ccccc1)C2 | inconclusive: 70.8 µM [quencher, side channel, single point] | –
Fc1ccc(-c2cc(-c3cccs3)cc(-c3ccccc3)n2)cc1 | – | inactive: -18.7%
COc1ccc(-c2cc(-c3ccccc3)nc(N3CCCC3)n2)cc1OC | – | inactive: 15.1%
CCN(C(=O)COC(=O)c1ccc(OCc2c(C)noc2C)cc1)c1ccccc1 | – | inactive: -5.71%
CCCc1nc2ccccc2c(C(=O)OCC(=O)Nc2ccc(S(=O)(=O)N3CCOCC3)cc2)c1CC | inconclusive: 89.1 µM [fluorescent, side channel, single point] | –
C=CCn1c(=O)/c(=C/c2ccc(C)o2)s/c1=C(/C#N)C(=O)c1ccccc1 | inconclusive: 70.8 µM [fluorescent, side channel, single point] | –
COc1ccccc1N1C(C)=CC(=C(C#N)c2nc3ccccc3s2)C=C1C | inconclusive: 28.2 µM [fluorescent, side channel, partial curve] | –
Cc1cc(C(=O)Nc2cc(C)n(Cc3ccc(Cl)cc3)n2)no1 | inconclusive: 35.5 µM [quencher, side channel, single point] | –

# The list goes on.

Structure (SMILES),Potency,"activity change, negative = inhibition"
Cc1nnc(NCc2n[nH]c(=O)c3ccccc23)c2ccccc12,"inconclusive: 70.8 µM [fluorescent, side channel, single point]",–
CCN1CCN(c2cc(C(C)C)nc3c(-c4ccccc4)c(C)nn23)CC1,–,inactive: -11.5%
CN(C)S(=O)(=O)Nc1ccccc1F,–,inactive: -11.8%
CCOc1ccc(NC(=O)NC2CCCc3ccccc32)cc1 (stereo unspecified),"inconclusive: 56.2 µM [quencher, side channel, single point]",–
CCOC(=O)c1c(NC(=O)COC(=O)c2ccc(O)cc2)sc(C(=O)N(C)C)c1C,–,inactive: 9.08%
O=C(Nc1ccccc1C(=O)NCc1ccco1)NC1CCCCC1,–,inactive: -1.16%
CCN(CC)C(=O)c1sc2nc(Cc3ccccc3)[nH]c(=O)c2c1C,"inconclusive: 22.4 µM [fluorescent, side channel, partial curve]",–
Cc1cc(C)nc(NC(=O)Nc2ccc3c(c2)OCO3)c1,"inconclusive: 112 µM [fluorescent, side channel, partial curve, poor fit]",–
S=C(NCCc1ccccn1)Nc1ccc(Cl)c(Cl)c1,"inconclusive: 89.1 µM [fluorescent, side channel, single point]",–
O=C(O)c1cccc(N2C(=O)CSC2=S)c1,"inconclusive: 44.7 µM [fluorescent, side channel, partial curve]",–
CCN1/C(=C/C=C/C=C/C=C/c2sc3ccccc3[n+]2CC)Sc2ccccc21,"inconclusive: 31.6 µM [quencher, partial curve]",–
Cc1cc(C)cc(Nc2nc(-c3ccc(S(=O)(=O)N4CCCC4)cc3)cs2)c1,–,inactive: 8.25%
O=c1[nH]c2ccccc2nc1/C=C(\O)c1cccs1,"inconclusive: 15.8 µM [fluorescent, side channel, partial curve]",–
Cc1ccc(NCc2nnc(SCC(=O)N3c4ccccc4Sc4ccccc43)o2)c(C)c1,"inconclusive: 89.1 µM [fluorescent, side channel, single point]",–
COCC(=O)Nc1ccc(S(=O)(=O)N2CCCC2)cc1,"inconclusive: 70.8 µM [inhibitor, single point]",–
COc1ccc(CCNC(=O)CCCCCNc2nc(=S)[nH]c3ccccc23)cc1OC,–,inactive: -4.69%
COc1ccc(C(=O)Cc2cc3ccccc3oc2=O)cc1,"inconclusive: 1.26 µM [fluorescent, side channel, full curve, poor fit]",–
CCCN(C(=O)c1cc2c(s1)CCC2)c1c(N)n(Cc2ccccc2)c(=O)[nH]c1=O,–,inactive: 23.2%
CCc1ccc(NC(=O)CN(N=Nc2nonc2C)c2nonc2C)cc1,"inconclusive: 35.5 µM [fluorescent, partial curve]",–
O=C(CSc1nnc(SCc2ccc(F)cc2)s1)Nc1ccc(C(=O)O)cc1,"inconclusive: 35.5 µM [inhibitor, single point]",–
